Test results published in patent publication US20050085420A1, “Method of modulating apoptosis and compositions thereof” (priority 2003, published 2005).
No constants are given. Whether binding was seen depends on the method and setting. Some entries that bind do so weakly or less than the wild type. Where a sequence is shown, tags or fusion partners need not be part of it.

The chains behind the UniProt entries cited, without tags or fusion partners. Residues count along the entry.
UniProt P70444, residues 60-195: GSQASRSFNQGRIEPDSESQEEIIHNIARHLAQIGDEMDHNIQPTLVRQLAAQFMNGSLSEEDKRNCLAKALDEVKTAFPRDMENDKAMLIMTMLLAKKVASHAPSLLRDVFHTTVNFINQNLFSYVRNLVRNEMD

What was measured:
[1] = molecular target: T1, N-terminal HA-tagged VDAC2 (murine, UniProt Q60930 1-295); test: anti-HA immunoprecipitation in 1% CHAPS from vdac1 -/-, vdac3 -/- fibroblast mitochondria, anti-BID immunoblot
T1 construct: also called HA-VDAC2; hemagglutinin (HA)-tagged version of VDAC2; not shown: N-terminal HA tag
T1 sequence (looked up): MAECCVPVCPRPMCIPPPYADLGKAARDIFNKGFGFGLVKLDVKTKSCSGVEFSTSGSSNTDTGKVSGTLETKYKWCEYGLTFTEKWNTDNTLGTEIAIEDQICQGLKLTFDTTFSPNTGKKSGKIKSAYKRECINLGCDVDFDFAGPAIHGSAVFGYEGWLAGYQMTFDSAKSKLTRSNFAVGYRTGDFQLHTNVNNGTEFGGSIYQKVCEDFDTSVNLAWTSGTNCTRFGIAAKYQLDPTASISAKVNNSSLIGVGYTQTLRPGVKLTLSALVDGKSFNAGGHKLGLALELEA

[2] = molecular target: T1, N-terminal HA-tagged VDAC2; test: anti-HA immunoprecipitation, immunoblot (FIG. 9 legend)

binding [1]: binds
binding [2]: binds
Substance: tBID, wild-type (p15 tBID, the activated form of BID) (from UniProt P70444 60-195)
